# According to patent US10220096B2, “Injectable and stable hydrogels with dynamic properties modulated by biocompatible catalysts” (The Board of Trustees of the Leland Stanford Junior …, priority 2016, dated 2019):
# Assay: Kinetic measurements on hydrazone exchange (model reaction, HPLC)
# Conditions: calculated from rate constants
# Procedure: 2-(aminomethyl)benzimidazole (1 in FIG. 2) is an efficient catalyst to accelerate hydrazone formation owing to facilitated intramolecular proton transfer in the transition state. The rates for hydrazone formation (k1) and cleavage (k−1) in the presence of 1 were measured using model reactions between hydrazine and aldehyde and modeled for a reversible second-order reaction (FIG. 8), and the equilibrium constant (Keq) was calculated from these rate constants. […] The gelation time of the HA-hydrazone hydrogels was dramatically shortened in the presence of 1. […] In the presence of about 25 mM of 1, gelation occurred in less than about 60 s and reached a final plateau shear modulus of about 800 Pa in about 5 min (FIG. 3b). Increasing the catalyst loading to about 100 mM further shortened the time to reach equilibrium to about 3 min (FIG. 3b). […] The rate of stress relaxation under constant strain was quantified by the time for the initially measured stress to relax to half of its original value, τ1/2. […] Accelerated hydrazone exchange by an incorporated catalyst also allowed these hydrogels to be readily remolded macroscopically (FIG. 9), facilitating their injection and re-processing. […]
# The equilibrium constant (Keq) and rate constants for hydrazone formation (k1) and cleavage (k−1) between aldehyde S1 and hydrazine S3 as model compounds with different concentrations of catalyst 1 were measured by HPLC. […]
# For the reactions performed in the absence of catalyst, about 10 μL of hydrazine and about 10 μL of aldehyde stock solutions were added to about 980 μL PBS buffer (1×, pH of about 7.4). […] The reactions were performed at about 37° C. in a water bath and followed using HPLC with detection at about 420 nm absorption (HPLC conditions: XBridge 10 μm C18 column; about 40% acetonitrile in PBS buffer (pH of about 7) isocratic elution in about 7 min at a flow rate of about 0.34 mL/min. The concentrations and conversions were calculated from the integrals of the HPLC signals. The kinetic data of hydrazone formation were fitted to a kinetic model for 2nd order reactions using Matlab (FIG. 8). […]
structure (smiles),measurement,setting,value
"NCc1nc2ccccc2[nH]1 [catalyst 1, 2-(aminomethyl)benzimidazole]","Keq, equilibrium constant of hydrazone formation",25 mM of 1,124000 M⁻¹
same,"Keq, equilibrium constant of hydrazone formation",50 mM of 1,123000 M⁻¹
same,"Keq, equilibrium constant of hydrazone formation",100 mM of 1,124000 M⁻¹
